We go through 4 molecules from article PMC7290792.

What all share (assay): co-IP; COS-1 cells transfected, cultured in 25 mM glucose; lysis in 200 mM NaCl, 20 mM HEPES pH 7.4, 1% NP-40; immunoprecipitated with ChREBP, LXRα, LXRβ or FLAG (for LID) antibodies on protein A Dynabeads, 2 h at 4 °C; immunoblot; in one panel cells treated with 0.1% DMSO or GW3965 (1 µM) for 18 h, GW3965 reduced the ChREBPα:LXRα interaction
Test [1] deals with T1, liver X receptor alpha (LXRα), full-length, FLAG-tagged (not stated (human or mouse cDNA cloned)) (UniProt Q13133).
T1 sequence: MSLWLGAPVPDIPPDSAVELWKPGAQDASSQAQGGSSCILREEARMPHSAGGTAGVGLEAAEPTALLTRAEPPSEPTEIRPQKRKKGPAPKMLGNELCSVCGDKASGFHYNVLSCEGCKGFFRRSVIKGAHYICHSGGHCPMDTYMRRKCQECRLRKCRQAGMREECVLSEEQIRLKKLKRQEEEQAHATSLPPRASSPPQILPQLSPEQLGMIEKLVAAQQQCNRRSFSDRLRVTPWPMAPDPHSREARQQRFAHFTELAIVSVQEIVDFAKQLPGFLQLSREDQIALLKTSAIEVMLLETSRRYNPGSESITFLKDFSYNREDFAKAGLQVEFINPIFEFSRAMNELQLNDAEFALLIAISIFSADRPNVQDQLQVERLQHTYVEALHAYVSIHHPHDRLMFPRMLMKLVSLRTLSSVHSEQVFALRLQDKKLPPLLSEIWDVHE

Test [2] addresses T2, liver X receptor beta (LXRβ), FLAG-tagged (pcDNA3-FLAG-hLXRβ) (human) (UniProt P55055).
T2 sequence: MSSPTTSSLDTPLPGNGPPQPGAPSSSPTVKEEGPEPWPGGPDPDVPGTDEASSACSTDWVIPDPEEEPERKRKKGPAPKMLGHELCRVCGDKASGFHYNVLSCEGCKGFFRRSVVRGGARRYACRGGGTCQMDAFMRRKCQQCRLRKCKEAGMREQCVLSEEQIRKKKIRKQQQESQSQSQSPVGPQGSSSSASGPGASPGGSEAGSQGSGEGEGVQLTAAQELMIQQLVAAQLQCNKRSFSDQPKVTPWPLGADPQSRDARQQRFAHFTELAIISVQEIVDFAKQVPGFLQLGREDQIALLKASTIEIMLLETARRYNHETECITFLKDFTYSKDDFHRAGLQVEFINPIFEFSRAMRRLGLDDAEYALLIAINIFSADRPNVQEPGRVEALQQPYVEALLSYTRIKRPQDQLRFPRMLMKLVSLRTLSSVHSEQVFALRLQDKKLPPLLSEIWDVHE

The target in test [3] is T3, carbohydrate responsive element-binding protein alpha (ChREBPα), full-length, FLAG-tagged (pCMV4-FLAG-mChREBPα) (mouse) (UniProt Q99MZ3).
T3 sequence: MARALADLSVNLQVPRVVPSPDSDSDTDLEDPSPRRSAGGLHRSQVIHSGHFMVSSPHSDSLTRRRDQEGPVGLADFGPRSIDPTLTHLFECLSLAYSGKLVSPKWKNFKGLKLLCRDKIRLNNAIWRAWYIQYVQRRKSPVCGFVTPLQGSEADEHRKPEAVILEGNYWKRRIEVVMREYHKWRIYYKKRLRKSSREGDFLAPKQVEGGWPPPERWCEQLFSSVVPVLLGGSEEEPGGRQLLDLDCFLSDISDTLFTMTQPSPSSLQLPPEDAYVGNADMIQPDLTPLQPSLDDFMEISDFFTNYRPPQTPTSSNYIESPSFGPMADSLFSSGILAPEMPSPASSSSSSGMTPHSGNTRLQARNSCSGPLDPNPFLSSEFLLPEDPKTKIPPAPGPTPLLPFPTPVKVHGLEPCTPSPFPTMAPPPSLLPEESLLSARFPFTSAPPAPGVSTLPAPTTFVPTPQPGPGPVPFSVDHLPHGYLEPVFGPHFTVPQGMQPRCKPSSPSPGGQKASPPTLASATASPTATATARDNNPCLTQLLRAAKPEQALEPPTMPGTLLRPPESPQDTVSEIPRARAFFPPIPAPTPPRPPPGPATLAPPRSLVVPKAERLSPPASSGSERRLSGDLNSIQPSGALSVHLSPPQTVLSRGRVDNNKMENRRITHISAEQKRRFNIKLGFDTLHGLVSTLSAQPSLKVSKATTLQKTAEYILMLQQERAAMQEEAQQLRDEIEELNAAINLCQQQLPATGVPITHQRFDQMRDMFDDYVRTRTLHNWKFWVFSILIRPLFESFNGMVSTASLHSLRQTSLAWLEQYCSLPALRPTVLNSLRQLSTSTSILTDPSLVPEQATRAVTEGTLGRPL

Results are given in words; binding and its absence hold for the method and conditions named. Binding seen in cells or lysates may run through a third protein. Some results given as binding are weak or reduced against the parent protein; the word gives no strength. Where a sequence is shown, tags or fusion partners need not be part of it.

B1: carbohydrate responsive element-binding protein alpha (ChREBPα), full-length, FLAG-tagged (pCMV4-FLAG-mChREBPα) (protein, UniProt Q99MZ3-1 1-864)
chain: T3 sequence
Turning to B1, the binding result in test [1] and in test [2] was “binds” throughout.

B2: liver X receptor alpha (LXRα), full-length, FLAG-tagged (protein, UniProt Q13133-1 1-447)
chain: T1 sequence
On to B2, for which the binding result in test [3] is reported as “binds”.

B3: ChREBPα low glucose inhibitory domain (LID), FLAG-tagged, amino acids 1-178 (domain or fragment, UniProt Q99MZ3-1 1-178)
chain: MARALADLSVNLQVPRVVPSPDSDSDTDLEDPSPRRSAGGLHRSQVIHSGHFMVSSPHSDSLTRRRDQEGPVGLADFGPRSIDPTLTHLFECLSLAYSGKLVSPKWKNFKGLKLLCRDKIRLNNAIWRAWYIQYVQRRKSPVCGFVTPLQGSEADEHRKPEAVILEGNYWKRRIEVVM
As for B3, the binding entry in test [1] is given as “binds”.

B4: LXRα truncation, amino acids 166-447 (hinge domain and LBD), FLAG-tagged (domain or fragment, UniProt Q13133-1 166-447)
chain: ECVLSEEQIRLKKLKRQEEEQAHATSLPPRASSPPQILPQLSPEQLGMIEKLVAAQQQCNRRSFSDRLRVTPWPMAPDPHSREARQQRFAHFTELAIVSVQEIVDFAKQLPGFLQLSREDQIALLKTSAIEVMLLETSRRYNPGSESITFLKDFSYNREDFAKAGLQVEFINPIFEFSRAMNELQLNDAEFALLIAISIFSADRPNVQDQLQVERLQHTYVEALHAYVSIHHPHDRLMFPRMLMKLVSLRTLSSVHSEQVFALRLQDKKLPPLLSEIWDVHE
Turning to B4, the binding entry in test [3] is on record as “binds”.
